Publication PMC3667794
No constants are given. Whether binding was seen depends on the method and setting. In cells and extracts the contact can be indirect. Some entries that bind do so weakly or less than the wild type.

Protein sequences, listed by entry. Tags and fused reporters are not part of them.
UniProt P03129: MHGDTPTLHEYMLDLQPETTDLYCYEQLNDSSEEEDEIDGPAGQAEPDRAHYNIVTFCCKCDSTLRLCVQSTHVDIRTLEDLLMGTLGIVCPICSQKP

Columns and labels:
[1] = target: T1, pRb (cell cycle control protein, cellular/endogenous) (human (endogenous in HaCaT and CaSki)) (UniProt P06400); test: co-IP
T1 sequence: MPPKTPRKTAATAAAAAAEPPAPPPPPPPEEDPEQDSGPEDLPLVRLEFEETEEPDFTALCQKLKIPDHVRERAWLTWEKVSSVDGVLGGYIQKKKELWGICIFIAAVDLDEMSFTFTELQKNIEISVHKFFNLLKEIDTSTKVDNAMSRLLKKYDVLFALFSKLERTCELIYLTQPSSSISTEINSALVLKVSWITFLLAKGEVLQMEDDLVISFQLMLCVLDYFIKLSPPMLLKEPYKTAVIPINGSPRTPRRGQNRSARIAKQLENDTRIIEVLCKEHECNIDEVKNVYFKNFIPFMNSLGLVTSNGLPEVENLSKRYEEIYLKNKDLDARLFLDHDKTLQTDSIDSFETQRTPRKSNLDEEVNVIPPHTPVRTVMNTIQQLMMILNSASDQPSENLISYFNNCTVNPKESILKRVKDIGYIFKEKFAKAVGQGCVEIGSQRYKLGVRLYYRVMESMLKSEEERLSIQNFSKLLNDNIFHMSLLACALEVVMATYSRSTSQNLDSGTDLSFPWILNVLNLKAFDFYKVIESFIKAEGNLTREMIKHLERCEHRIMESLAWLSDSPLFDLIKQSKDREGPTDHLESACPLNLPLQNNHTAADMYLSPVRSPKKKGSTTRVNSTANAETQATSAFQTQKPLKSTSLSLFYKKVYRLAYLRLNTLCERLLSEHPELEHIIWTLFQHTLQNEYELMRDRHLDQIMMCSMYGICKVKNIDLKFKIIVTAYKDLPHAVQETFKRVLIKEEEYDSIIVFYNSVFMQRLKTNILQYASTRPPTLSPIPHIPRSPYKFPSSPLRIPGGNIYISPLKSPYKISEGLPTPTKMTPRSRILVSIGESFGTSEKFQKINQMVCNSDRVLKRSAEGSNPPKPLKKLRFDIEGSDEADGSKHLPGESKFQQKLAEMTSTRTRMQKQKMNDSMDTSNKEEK

[2] = target: HPV16 E7 (endogenous in CaSki cells) (HPV16 (endogenous in CaSki)) (UniProt P03129); test: co-IP
[3] = target: GST-E7 (HPV16 E7 oncoprotein, wild type) (HPV16) (UniProt P03129); test: pull-down; only the target purified

Molecule: HPV16 E7 (endogenous in CaSki cells) (from UniProt P03129 1-98)
- binding [1]: binds

B1: pRb (cell cycle control protein, cellular/endogenous) (protein, UniProt P06400 1-928)
chain: MPPKTPRKTAATAAAAAAEPPAPPPPPPPEEDPEQDSGPEDLPLVRLEFEETEEPDFTALCQKLKIPDHVRERAWLTWEKVSSVDGVLGGYIQKKKELWGICIFIAAVDLDEMSFTFTELQKNIEISVHKFFNLLKEIDTSTKVDNAMSRLLKKYDVLFALFSKLERTCELIYLTQPSSSISTEINSALVLKVSWITFLLAKGEVLQMEDDLVISFQLMLCVLDYFIKLSPPMLLKEPYKTAVIPINGSPRTPRRGQNRSARIAKQLENDTRIIEVLCKEHECNIDEVKNVYFKNFIPFMNSLGLVTSNGLPEVENLSKRYEEIYLKNKDLDARLFLDHDKTLQTDSIDSFETQRTPRKSNLDEEVNVIPPHTPVRTVMNTIQQLMMILNSASDQPSENLISYFNNCTVNPKESILKRVKDIGYIFKEKFAKAVGQGCVEIGSQRYKLGVRLYYRVMESMLKSEEERLSIQNFSKLLNDNIFHMSLLACALEVVMATYSRSTSQNLDSGTDLSFPWILNVLNLKAFDFYKVIESFIKAEGNLTREMIKHLERCEHRIMESLAWLSDSPLFDLIKQSKDREGPTDHLESACPLNLPLQNNHTAADMYLSPVRSPKKKGSTTRVNSTANAETQATSAFQTQKPLKSTSLSLFYKKVYRLAYLRLNTLCERLLSEHPELEHIIWTLFQHTLQNEYELMRDRHLDQIMMCSMYGICKVKNIDLKFKIIVTAYKDLPHAVQETFKRVLIKEEEYDSIIVFYNSVFMQRLKTNILQYASTRPPTLSPIPHIPRSPYKFPSSPLRIPGGNIYISPLKSPYKISEGLPTPTKMTPRSRILVSIGESFGTSEKFQKINQMVCNSDRVLKRSAEGSNPPKPLKKLRFDIEGSDEADGSKHLPGESKFQQKLAEMTSTRTRMQKQKMNDSMDTSNKEEK
- binding [2]: binds
- binding [3]: binds
